This note sets out measurements from paper PMC9860392, “The N-terminal domain of human mitochondrial helicase Twinkle has DNA-binding activity crucial for supporting processive DNA synthesis by polymerase γ” (The Journal of Biological Chemistry, 2022).

No constants are given. Whether binding was seen depends on the method and setting.

For the assay, the target named is Twinkle N-terminal domain (amino acids 43-372) (human) (UniProt Q96RR1). Briefly: SEC; Superdex 200 Increase 10/300 GL, 4 °C, 0.3 ml/min; 500 μl of 61 μM (monomer) NTD in buffer C (20 mM NaH2PO4 pH 7.7, 0.5 mM EDTA, 1 mM DTT) with 200 mM NaCl and 5% glycerol; size from a calibration curve of protein standards; both purified.

B1: Twinkle N-terminal domain (amino acids 43-372) (domain or fragment, UniProt Q96RR1 43-372)
chain: ETLQALDMPVLPVTATEIRQYLRGHGIPFQDGHSCLRALSPFAESSQLKGQTGVTTSFSLFIDKTTGHFLCMTSLAEGSWEDFQASVEGRGDGAREGFLLSKAPEFEDSEEVRRIWNRAIPLWELPDQEEVQLADTMFGLTKVTDDTLKRFSVRYLRPARSLVFPWFSPGGSGLRGLKLLEAKCQGDGVSYEETTIPRPSAYHNLFGLPLISRRDAEVVLTSRELDSLALNQSTGLPTLTLPRGTTCLPPALLPYLEQFRRIVFWLGDDLRSWEAAKLFARKLNPKRCFLVRPGDQQPRPLEALNGGFNLSRILRTALPAWHKSIVSFRQ
As to B1, the binding entry was “no binding (tested: ∼80 μM)”.
